Reference: PMC9776959
Results are given in words; binding and its absence hold for the method and conditions named. In cells and extracts the contact can be indirect. A result given as binding can be weak or reduced; the word gives no strength. Where a sequence is shown, tags or fusion partners need not be part of it.

Molecular target: T1, 3xFLAG-TRIP13 (human) (UniProt Q15645)
T1 sequence: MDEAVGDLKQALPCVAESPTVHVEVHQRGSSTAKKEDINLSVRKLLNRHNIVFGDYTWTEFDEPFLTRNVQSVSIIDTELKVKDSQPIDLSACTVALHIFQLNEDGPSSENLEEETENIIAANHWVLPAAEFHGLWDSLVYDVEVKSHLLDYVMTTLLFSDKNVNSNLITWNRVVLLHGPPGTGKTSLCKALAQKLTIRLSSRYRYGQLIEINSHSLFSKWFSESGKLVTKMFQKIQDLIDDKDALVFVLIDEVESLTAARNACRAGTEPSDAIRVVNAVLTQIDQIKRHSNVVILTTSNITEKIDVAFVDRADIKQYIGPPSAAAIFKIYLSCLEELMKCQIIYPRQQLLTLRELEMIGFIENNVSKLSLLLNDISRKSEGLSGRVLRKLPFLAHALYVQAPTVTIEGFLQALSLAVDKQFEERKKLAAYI
Experiment: co-IP; FLAG immunoprecipitation from cells overexpressing 3xFLAG-TRIP13 and the Myc-MRE11 domain deletion series; buffer X (100 mM Tris-HCl, 250 mM NaCl, 1 mM EDTA, 1% NP-40) with Benzonase, 4 °C

## Myc-MRE11 C-terminal domain deletion (domain or fragment)
  binding: binds

## Myc-MRE11 capping domain deletion (domain or fragment)
  binding: binds
